In paper PMC7868085, “A potent and selective small molecule inhibitor of myoferlin attenuates colorectal cancer progression” (Clinical and Translational Medicine, 2021):
These are yes or no findings as the source states them, for the method shown. In cells and extracts the contact can be indirect. Some binding calls cover weakened binding; strength is not graded here. For some assays here: Sequences can lack the tags named with a protein. Blank lines part the entries; values can stand above or below the substance they belong to.

The chains behind the UniProt entries cited, without tags or fusion partners.
UniProt Q9NZM1: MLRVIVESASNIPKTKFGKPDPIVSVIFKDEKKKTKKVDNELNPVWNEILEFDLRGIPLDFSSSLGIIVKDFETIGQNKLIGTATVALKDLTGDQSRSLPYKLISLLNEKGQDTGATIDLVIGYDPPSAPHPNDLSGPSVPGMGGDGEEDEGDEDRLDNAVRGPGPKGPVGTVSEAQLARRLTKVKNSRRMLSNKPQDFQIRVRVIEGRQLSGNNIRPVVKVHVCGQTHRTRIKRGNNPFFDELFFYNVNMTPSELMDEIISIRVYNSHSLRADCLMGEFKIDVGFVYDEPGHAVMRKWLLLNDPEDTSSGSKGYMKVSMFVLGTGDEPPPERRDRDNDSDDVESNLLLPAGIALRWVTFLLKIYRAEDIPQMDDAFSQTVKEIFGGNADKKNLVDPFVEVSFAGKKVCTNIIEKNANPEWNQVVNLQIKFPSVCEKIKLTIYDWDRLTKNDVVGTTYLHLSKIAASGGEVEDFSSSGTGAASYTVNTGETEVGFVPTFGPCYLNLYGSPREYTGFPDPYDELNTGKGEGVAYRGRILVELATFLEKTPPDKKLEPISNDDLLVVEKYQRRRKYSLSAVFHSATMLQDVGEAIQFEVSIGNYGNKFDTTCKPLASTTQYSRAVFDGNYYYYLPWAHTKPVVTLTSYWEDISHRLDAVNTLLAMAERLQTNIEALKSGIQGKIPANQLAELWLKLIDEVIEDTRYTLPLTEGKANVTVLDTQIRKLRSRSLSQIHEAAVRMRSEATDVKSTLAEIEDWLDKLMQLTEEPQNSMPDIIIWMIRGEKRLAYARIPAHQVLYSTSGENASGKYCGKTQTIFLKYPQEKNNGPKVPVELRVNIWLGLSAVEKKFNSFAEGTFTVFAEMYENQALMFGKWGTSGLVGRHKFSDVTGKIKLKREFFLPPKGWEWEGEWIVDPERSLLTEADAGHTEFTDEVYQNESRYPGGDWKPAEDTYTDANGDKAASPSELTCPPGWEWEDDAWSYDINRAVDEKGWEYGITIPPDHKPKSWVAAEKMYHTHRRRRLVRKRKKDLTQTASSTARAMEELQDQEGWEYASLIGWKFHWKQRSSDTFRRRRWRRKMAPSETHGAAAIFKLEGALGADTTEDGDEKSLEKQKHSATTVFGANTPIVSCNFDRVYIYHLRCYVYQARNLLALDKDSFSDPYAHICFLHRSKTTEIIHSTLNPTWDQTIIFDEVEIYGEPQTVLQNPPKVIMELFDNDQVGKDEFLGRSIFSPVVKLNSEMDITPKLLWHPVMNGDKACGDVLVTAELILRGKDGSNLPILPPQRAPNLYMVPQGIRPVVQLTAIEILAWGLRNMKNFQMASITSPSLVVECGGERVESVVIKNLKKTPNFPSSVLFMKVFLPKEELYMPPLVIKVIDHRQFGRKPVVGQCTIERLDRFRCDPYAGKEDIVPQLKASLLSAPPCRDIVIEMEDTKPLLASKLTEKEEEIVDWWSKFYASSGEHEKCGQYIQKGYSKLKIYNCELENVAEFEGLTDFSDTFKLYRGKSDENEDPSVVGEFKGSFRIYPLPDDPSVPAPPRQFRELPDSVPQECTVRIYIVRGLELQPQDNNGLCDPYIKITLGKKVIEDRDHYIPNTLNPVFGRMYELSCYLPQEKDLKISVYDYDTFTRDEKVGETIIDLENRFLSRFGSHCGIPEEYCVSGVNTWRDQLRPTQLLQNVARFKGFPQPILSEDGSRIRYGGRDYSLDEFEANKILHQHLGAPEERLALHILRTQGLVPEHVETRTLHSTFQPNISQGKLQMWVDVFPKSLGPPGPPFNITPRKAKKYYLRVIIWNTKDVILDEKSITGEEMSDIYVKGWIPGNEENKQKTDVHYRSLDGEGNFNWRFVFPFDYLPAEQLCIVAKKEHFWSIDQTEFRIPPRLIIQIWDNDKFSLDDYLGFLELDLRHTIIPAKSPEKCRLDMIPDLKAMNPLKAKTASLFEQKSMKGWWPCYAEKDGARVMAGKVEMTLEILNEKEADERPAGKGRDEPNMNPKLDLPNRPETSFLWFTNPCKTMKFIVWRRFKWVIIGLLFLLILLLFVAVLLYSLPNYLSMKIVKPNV
UniProt P51149: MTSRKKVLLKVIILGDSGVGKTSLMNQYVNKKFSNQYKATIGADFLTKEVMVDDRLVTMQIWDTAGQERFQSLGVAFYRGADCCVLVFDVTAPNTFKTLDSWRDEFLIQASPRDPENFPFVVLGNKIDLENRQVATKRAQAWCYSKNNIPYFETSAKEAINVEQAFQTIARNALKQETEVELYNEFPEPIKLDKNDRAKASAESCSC
UniProt Q03135: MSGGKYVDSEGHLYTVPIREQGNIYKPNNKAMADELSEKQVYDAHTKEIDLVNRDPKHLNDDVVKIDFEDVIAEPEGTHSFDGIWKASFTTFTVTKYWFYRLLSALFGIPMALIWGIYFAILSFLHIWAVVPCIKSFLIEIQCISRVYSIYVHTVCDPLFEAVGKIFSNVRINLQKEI

How the values were obtained:
[1] = biological target: HA-MYOF (myoferlin) (UniProt Q9NZM1); assay: co-IP; HEK293T cells co-transfected with tagged plasmids, treated with YQ456 for 24 h (doses); lysate in IP buffer (150 mM NaCl, 0.1% Triton X-100, 50 mM Tris-HCl, 1 mM EDTA, pH 7.4); precipitation by tag antibody beads (Flag M2 affinity gel or anti-HA agarose), western blot; 4°C
[2] = biological target: T1, Flag-Rab32 (UniProt Q13637); assay: as above
T1 sequence: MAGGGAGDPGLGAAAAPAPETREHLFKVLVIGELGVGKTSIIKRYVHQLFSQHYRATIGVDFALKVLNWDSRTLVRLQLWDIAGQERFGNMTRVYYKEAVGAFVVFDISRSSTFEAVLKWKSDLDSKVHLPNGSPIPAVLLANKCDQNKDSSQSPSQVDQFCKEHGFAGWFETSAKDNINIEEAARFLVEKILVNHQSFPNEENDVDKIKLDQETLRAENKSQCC

[3] = biological target: Flag-Rab7 (UniProt P51149); assay: as above
[4] = biological target: Rab7, endogenous in HCT116 cells (human (endogenous in HCT116)) (UniProt P51149); assay: co-IP; HCT116 cells without transfection, treated with YQ456 for 24 h; lysate in IP buffer (150 mM NaCl, 0.1% Triton X-100, 50 mM Tris-HCl, 1 mM EDTA, pH 7.4); antibodies overnight, protein A/G, western blot; 4°C

- binding [1]: binds
Substance: Flag-CAV1 (caveolin 1) (from UniProt Q03135 1-178)

- binding [1]: binds
Substance: Flag-Rab7 (from UniProt P51149 1-207)

- binding [2]: binds
- binding [3]: binds
Substance: HA-MYOF (myoferlin) (from UniProt Q9NZM1 1-2061)

- binding [4]: binds
Substance: Myoferlin (MYOF), endogenous in HCT116 cells (from UniProt Q9NZM1 1-2061)
